Assay results as given in publication PMC4239118.
Like-named read-outs stand apart in the source and are kept apart here. No constants are given. Whether binding was seen depends on the method and setting. For some of these results: Binding seen in cells or lysates may run through a third protein. Some entries that bind do so weakly or less than the wild type. For some of these results: Where a sequence is shown, tags or fusion partners need not be part of it. Blank lines part the entries; values can stand above or below the molecule they belong to.

Protein sequences, listed by entry. Tags and fused reporters are not part of them.
UniProt V5IN79: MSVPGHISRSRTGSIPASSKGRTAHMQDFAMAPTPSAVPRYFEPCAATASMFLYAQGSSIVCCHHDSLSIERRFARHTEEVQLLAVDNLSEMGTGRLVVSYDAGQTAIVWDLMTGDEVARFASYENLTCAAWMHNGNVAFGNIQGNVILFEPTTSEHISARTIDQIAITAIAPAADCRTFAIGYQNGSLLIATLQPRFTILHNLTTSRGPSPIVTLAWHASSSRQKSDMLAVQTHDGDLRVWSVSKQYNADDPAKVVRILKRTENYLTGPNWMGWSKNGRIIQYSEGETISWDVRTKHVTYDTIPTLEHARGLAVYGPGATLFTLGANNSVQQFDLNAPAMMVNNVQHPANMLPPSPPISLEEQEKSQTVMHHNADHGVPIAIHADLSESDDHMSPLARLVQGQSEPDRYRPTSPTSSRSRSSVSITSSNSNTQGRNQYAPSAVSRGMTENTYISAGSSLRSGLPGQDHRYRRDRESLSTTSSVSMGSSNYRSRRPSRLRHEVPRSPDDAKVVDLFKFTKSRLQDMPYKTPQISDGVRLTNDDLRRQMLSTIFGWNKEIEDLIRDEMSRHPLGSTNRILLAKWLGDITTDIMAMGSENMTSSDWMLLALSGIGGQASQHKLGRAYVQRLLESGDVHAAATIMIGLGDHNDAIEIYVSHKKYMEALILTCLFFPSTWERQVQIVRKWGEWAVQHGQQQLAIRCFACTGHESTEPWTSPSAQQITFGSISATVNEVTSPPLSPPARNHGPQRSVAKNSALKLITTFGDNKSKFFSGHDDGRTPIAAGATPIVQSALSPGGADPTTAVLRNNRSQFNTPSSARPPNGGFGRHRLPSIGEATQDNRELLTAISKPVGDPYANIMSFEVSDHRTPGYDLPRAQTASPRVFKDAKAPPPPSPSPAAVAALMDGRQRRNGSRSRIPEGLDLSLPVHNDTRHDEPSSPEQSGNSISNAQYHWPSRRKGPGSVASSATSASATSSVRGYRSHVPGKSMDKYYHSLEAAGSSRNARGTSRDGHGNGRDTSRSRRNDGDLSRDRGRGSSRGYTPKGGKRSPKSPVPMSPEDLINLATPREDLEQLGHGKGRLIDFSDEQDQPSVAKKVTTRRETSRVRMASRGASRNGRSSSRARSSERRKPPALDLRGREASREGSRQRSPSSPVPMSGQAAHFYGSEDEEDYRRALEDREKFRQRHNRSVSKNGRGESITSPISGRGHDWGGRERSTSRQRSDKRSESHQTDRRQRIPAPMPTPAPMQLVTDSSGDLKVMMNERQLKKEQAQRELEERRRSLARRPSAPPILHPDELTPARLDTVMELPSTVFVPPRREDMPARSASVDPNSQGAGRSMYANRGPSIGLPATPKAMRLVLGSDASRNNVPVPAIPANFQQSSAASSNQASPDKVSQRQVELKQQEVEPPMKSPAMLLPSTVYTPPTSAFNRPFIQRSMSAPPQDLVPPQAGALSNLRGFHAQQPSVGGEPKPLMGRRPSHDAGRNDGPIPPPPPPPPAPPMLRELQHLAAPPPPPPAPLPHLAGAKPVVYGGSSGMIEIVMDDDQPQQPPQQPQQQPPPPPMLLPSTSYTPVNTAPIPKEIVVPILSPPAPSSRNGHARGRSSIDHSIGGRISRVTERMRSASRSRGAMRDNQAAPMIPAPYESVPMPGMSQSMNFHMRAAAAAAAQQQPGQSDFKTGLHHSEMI

Columns and labels:
[1] = molecular target: HAM-5 (yeast two-hybrid construct) (Neurospora crassa) (UniProt V5IN79); assay: two-hybrid; constructs co-expressed in yeast strain AH109, growth on selective media; reciprocal assays in Figure S2
[2] = molecular target: T1, MAK-2 (yeast two-hybrid construct) (Neurospora crassa) (UniProt V5IKE7); assay: as above
T1 sequence: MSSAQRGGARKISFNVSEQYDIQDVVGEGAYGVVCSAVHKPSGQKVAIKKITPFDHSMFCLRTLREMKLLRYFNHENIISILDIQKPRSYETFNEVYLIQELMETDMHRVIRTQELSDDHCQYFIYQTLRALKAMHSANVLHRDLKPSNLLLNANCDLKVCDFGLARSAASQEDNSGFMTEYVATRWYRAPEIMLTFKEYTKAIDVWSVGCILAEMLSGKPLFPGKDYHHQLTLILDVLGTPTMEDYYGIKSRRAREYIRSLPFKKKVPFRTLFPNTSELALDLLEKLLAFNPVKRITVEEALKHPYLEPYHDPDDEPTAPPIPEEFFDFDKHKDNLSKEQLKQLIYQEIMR

[3] = molecular target: T2, functionally tagged MAK-2 (Neurospora crassa) (UniProt V5IKE7); assay: co-IP; reciprocal co-immunoprecipitation from N. crassa cell extracts co-expressing tagged proteins, wild type background
T2 sequence: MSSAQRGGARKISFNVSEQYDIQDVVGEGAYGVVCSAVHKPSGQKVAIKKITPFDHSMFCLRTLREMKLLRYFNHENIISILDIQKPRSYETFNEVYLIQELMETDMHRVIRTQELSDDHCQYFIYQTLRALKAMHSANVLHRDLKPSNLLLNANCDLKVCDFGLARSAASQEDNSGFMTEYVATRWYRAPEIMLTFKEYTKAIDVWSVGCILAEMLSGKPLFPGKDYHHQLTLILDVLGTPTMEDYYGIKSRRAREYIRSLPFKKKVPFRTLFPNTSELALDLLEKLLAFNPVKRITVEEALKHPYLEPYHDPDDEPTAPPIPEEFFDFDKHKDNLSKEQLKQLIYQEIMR

[4] = molecular target: HAM-5 (yeast two-hybrid construct) (Neurospora crassa) (UniProt V5IN79); assay: two-hybrid; constructs co-expressed in yeast strain AH109, growth on selective media; reciprocal assays in Figure S2; remark: listed apart in the source

binding [1]: binds
binding [2]: binds
Molecule: HAM-5 (yeast two-hybrid construct) (from UniProt V5IN79 1-1686)

binding [3]: binds
Molecule: functionally tagged HAM-5 (from UniProt V5IN79 1-1686)

binding [4]: binds
B1: STE-20 (yeast two-hybrid construct) (enzyme, UniProt Q7RZD3 1-954)
chain: MDGQLSLLSPTSSSSTSHSRKRLTKKQRPPSANHRTSSSFNVESLRIDAQSLDSKRSASSLRQGPNCNQSPSLARTVSVPVSVPSNAPAHTKASDLSLPRSHTTRSQSANRPYNPTQTIPTNRFILSPASSSQPQTQSPPYPSAVASTTVTSSRNKDTSKQYDPLDSCIGSFDQNKLSTDELIGAPFDGNAILSRIEATKLSAAPAPTSTTTIAHSNNISPRRVAPPPPPPPPALSRSNTDSKAARSSKPSKSPKSTISNKTMGASSFRHSASFSSAEQLPPSEKPSKSESSSSSNKRHSGDGKESRVPGMLRKKSGFSGFMNSLVGSPKKPLISAPENPVHVTHVGYDSNTGQFTGLPKEWQRLISESGITEKDRREHPQILVDVLTFYKETTEKPQEDQQLEKFHDARATDFRSPPVTGTAPLVLQTGVGYAHGPMSPMISPPASPRFPQVGHEGSFENPRAPPPVPKGPGPLPAKDINLIPSRPAPKPPAISTRPLVPPASLPAKDSGIGMPPPGDEAPMPYLPPKDNVQHMYQEEHRNRSRSNSRTNGAAPFSPVQASPLHPIATANQTAAYQQQLLQHQQEQAMAQAQAAMSGQLSRAASKRQQPTPPTSQHQHPRQPDINGAPRMPQTQGAAPQASARPRHRPRQSNAIDVVASLKRICSDGDPREIYRGFTKIGQGASGGVYTGHERGSNRLVAIKQMNLEQQPKKDLIINEILVMKESSHPNIVNFIDSYLCAGELWVVMEYMEGGSLTDVVTFNIMTEGQIASVCRETLRGLQHLHSKGVIHRDIKSDNILLSMEGNIKLTDFGFCATINEAQSKRTTMVGTPYWMAPEVVTRKEYGRKVDIWSLGIMAIEMIEGEPPYLTESPLRALWLIATNGTPHIKDEQSLSPVFRDFLYFALKVDPEKRASAHDLLRHDFMNKCVDLSTLAPLVRAAREARAQEKARKGQ
